Measurements reported in paper doi:10.1101/2020.06.18.159806.
Residue numbers refer to the chain shown, from its start. Read-outs that look alike come from different tables or passages of the source. Results are given in words; binding and its absence hold for the method and conditions named. Binding seen in cells or lysates may run through a third protein. Some binding calls cover weakened binding; strength is not graded here. Where a sequence is shown, tags or fusion partners need not be part of it.

Amino acid sequences for entries named in this document (tags omitted). A change or cut given only in a name is not applied to a line headed by its entry. Residues count along the entry.
UniProt P22681, 47-357: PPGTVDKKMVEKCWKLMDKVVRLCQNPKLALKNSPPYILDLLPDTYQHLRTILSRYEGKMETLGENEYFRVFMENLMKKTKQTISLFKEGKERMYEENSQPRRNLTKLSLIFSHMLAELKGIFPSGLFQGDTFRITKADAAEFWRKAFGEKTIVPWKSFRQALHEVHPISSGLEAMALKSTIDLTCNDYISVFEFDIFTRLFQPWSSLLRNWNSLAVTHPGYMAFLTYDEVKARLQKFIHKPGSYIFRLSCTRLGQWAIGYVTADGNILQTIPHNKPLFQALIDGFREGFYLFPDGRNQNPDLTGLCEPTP

Key:
Assay in all cases: pull-down
[1] = molecular target: T1, Trx-His(6)-Δlinker-hSLAP2 (human SLAP2 residues 29-261) (human) (UniProt Q9H6Q3)
T1 sequence: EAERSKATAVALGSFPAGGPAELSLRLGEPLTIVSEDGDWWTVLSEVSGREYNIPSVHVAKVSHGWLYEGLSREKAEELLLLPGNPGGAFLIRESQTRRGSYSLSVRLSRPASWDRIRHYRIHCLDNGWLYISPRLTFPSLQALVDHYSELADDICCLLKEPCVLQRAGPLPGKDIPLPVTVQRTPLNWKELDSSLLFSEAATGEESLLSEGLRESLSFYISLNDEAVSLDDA

[2] = molecular target: T2, Trx-His(6)-Δlinker-hSLAP2 (29-261) G240R (human) (UniProt Q9H6Q3)
T2 sequence: T1 sequence with G212R

[3] = molecular target: T3, Trx-His(6)-Δlinker-hSLAP2 (29-261) I249W (human) (UniProt Q9H6Q3)
T3 sequence: T1 sequence with I221W

[4] = molecular target: T4, Trx-His(6)-Δlinker-hSLAP2 (29-261) R242A (human) (UniProt Q9H6Q3)
T4 sequence: T1 sequence with R214A

[5] = molecular target: T5, Trx-His(6)-Δlinker-hSLAP2 (29-261) S244E (human) (UniProt Q9H6Q3)
T5 sequence: T1 sequence with S216E

[6] = molecular target: T6, Trx-His(6)-Δlinker-hSLAP2 (29-261) S246/250E (human) (UniProt Q9H6Q3)
T6 sequence: T1 sequence with S218E, S222E

[7] = molecular target: T7, Trx-His(6)-Δlinker-hSLAP2 (29-261) Y248F (human) (UniProt Q9H6Q3)
T7 sequence: T1 sequence with Y220F

[8] = molecular target: T1, Trx-His(6)-Δlinker-hSLAP2 (human SLAP2 residues 29-261) (human); remark: listed apart in the source

Measured: binding

CBL (47-357) A223R (from UniProt P22681 47-357) (domain or fragment)
binds: [1]

CBL (47-357), co-expressed from MCS2 of pETDuet-1 (from UniProt P22681 47-357) (domain or fragment)
binds: all assays above
